{"source": "PubChem BioAssay AID504648", "about": "(National Center for Advancing Translational Sciences (NCATS), 2011)", "note": "Out of some 390,000 compounds screened, about 610 (0.16%) were called active. Inconclusive results, whose numbers are uncertain, are shown with a selection of clear calls. The call rests on the fitted dose curve; in most records, active means well fitted inhibition curve with a large enough effect; inconclusive means small, poorly fitted or top-dose-only effect, or effect the other way, or another doubt; inactive means no such curve, though single readings can be large or run the other way. Potencies of inconclusive entries are doubtful fits and often do not repeat. On the % scale 0 is the no-effect control and ±100 the full control effect; potency means the concentration at half of the fitted maximal effect.", "data": [{"assay": "Nrf2 qHTS screen for inhibitors: counterscreen for cytotoxicity", "settings": "A549 ARE-Fluc cells, CellTiter-Fluor viability, 18-24 h; activity change, negative = cytotoxicity: at 46 µM (top of the series)", "procedure,_shortened": "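A549 ARE-Fluc cells in 5% FBS OPTI-MEM, 5000 cells/well, rested 2 h then exposed to compounds in concentration-response for 18-24 h at 37 °C. Viability by CellTiter-Fluor fluorescence (Ex 405/Em 525) after 30 min; luciferase luminescence (BugLite, 15 min, RT) read afterwards.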", "values": [{"compound": "Cc1c(CC(=O)NCCCC(=O)O)c(=O)oc2cc3occ(-c4ccccc4)c3cc12", "activity change, negative = cytotoxicity": "inactive: 2.93%"}, {"compound": "O=S(=O)(c1cccc(F)c1)N1CCC(Oc2ccc(-n3cnnn3)cc2)CC1", "Potency": "inconclusive: 29.1 µM [falling, single point]"}, {"compound": "COc1ccc2nc(-c3ccccc3)[nH]c2c1", "Potency": "inconclusive: 7.31 µM [activator, partial curve, poor fit]"}, {"compound": "O=C(Nc1cc(Br)ccc1O)c1cnn2c(C(F)F)cc(C3CC3)nc12", "activity change, negative = cytotoxicity": "inactive: 7.87%"}, {"compound": "Cc1nc(N2CCOCC2)c2c(C)c(C(=O)Nc3ccc(C(F)(F)F)cc3)sc2n1", "Potency": "inconclusive: 29.1 µM [falling, single point]"}, {"compound": "O=S1(=O)NCC23CCC(CC21)O3", "note": "(centres undefined)", "activity change, negative = cytotoxicity": "inactive: -4.24%"}, {"compound": "CCc1ccccc1NC(=O)CSc1ncc(S(=O)(=O)c2ccc(C(C)C)cc2)c(N)n1", "Potency": "inconclusive: 18.4 µM [falling, partial curve, poor fit]"}, {"compound": "CC1CCN(c2c(NCc3ccc(C(=O)N4CCN(C5CCCCC5)CC4)cc3)c(=O)c2=O)CC1", "activity change, negative = cytotoxicity": "inactive: 0.461%"}, {"compound": "CCOc1ccc(Nc2nc3c(C)cccc3cc2C#N)cc1", "Potency": "inconclusive: 29.1 µM [activator, partial curve, poor fit]"}, {"compound": "O=[N+]([O-])c1ccc(N2CCN(C(=S)NC3CCCCC3)CC2)cc1", "Potency": "inconclusive: 16.4 µM [falling, partial curve, poor fit]"}, {"compound": "CCc1cccc2c(C(=O)C(NC(C)CC)c3ccccc3)c[nH]c12", "note": "(centres undefined)", "Potency": "inconclusive: 32.6 µM [falling, partial curve, poor fit]"}, {"compound": "COc1ccc(NC(=S)Nc2nc(CC(=O)Nc3ccccc3OC)cs2)cc1", "Potency": "inconclusive: 29.1 µM [falling, single point]"}, {"compound": "CC1(C)c2ccccc2-c2nc3ccccc3cc2C1O", "note": "(centres undefined)", "Potency": "inconclusive: 25.9 µM [falling, partial curve, poor fit]"}, {"compound": "Cc1cc(C)c2c(n1)sc1c(=O)n(-c3cc(Cl)ccc3C)nnc12", "Potency": "inconclusive: 29.1 µM [falling, single point]"}, {"compound": "O=C(NCCc1nc(-c2ccccc2)cs1)c1ccc(Br)cc1", "activity change, negative = cytotoxicity": "inactive: -0.639%"}, {"compound": "C=CCOc1ccc(CN(C)C(=O)c2ccc(CNS(=O)(=O)c3ccc(C)c(C)c3)cc2)cc1", "Potency": "inconclusive: 16.4 µM [falling, single point]"}, {"compound": "O=C(NCc1cccs1)c1ccc(Cn2c(SCc3ccc(F)cc3)nc3cccnc32)cc1", "Potency": "inconclusive: 29.1 µM [falling, single point]"}, {"compound": "COc1ccc(/C=C(\\C#N)c2nc3ccccc3n2C)c(OC)c1", "Potency": "inconclusive: 23.1 µM [falling, single point]"}, {"compound": "CCC(C)c1ccc(NC(=S)Nc2ccc(OC)cc2)cc1", "note": "(centres undefined)", "activity change, negative = cytotoxicity": "inactive: 4.02%"}, {"compound": "CCOCCCN(Cc1ccco1)C(=O)c1cc2c(=O)[nH]c3ccc(C)cc3c2s1", "Potency": "inactive"}, {"compound": "CC(C)Cc1nnc(NC(=O)CCC(=O)N2CCN(c3ccc([N+](=O)[O-])cc3)CC2)s1", "Potency": "inconclusive: 25.9 µM [falling, partial curve, poor fit]"}, {"compound": "CSc1nc2n(n1)C(c1ccccn1)C1=C(CC(C)(C)CC1=O)N2", "note": "(centres undefined)", "activity change, negative = cytotoxicity": "inactive: 6.42%"}, {"compound": "Cc1cc(C)n(C(=O)/C(C#N)=N/Nc2cc(Cl)cc(Cl)c2)n1", "Potency": "inconclusive: 29.1 µM [falling, single point]"}, {"compound": "Cc1ccc(C)c(-n2nnnc2Sc2nnnn2-c2ccccc2)c1", "Potency": "inconclusive: 23.1 µM [falling, single point]"}, {"compound": "COc1cc(C2C=C(Nc3ccccc3)C(=O)N2c2ccccc2)ccc1O", "note": "(centres undefined)", "Potency": "inconclusive: 23.1 µM [falling, partial curve, poor fit]"}, {"compound": "CN1C(=O)Cc2cc(S(=O)(=O)Nc3ccc(Cl)cc3)ccc21", "Potency": "inconclusive: 23.1 µM [falling, partial curve, poor fit]"}, {"compound": "CC1CCCCC1NC(=O)/C(C#N)=C/c1ccccc1F", "note": "(centres undefined)", "activity change, negative = cytotoxicity": "inactive: -16.1%"}, {"compound": "Oc1ccc(/C=C/c2ccccc2F)c2cccnc12", "Potency": "inconclusive: 23.1 µM [falling, partial curve, poor fit]"}, {"compound": "CC(C)CS(=O)(=O)c1oc(-c2ccc(F)cc2)nc1S(=O)(=O)c1ccccc1", "Potency": "inconclusive: 23.1 µM [falling, single point]"}, {"compound": "COCCCNC(=S)N/N=C/c1ccccc1O", "activity change, negative = cytotoxicity": "inactive: 18.7%"}, {"compound": "Cc1cc(NC(=O)CSc2nc(-c3ccccc3Cl)nc3c2c(=O)n(C)c(=O)n3C)no1", "activity change, negative = cytotoxicity": "inactive: 2.68%"}, {"compound": "O=C(Nc1ccc(Cl)cc1)C1CCCN(c2ncnc3c2nc2n3CCCCC2)C1", "note": "(centres undefined)", "activity change, negative = cytotoxicity": "inactive: -27.9%"}, {"compound": "CCN(CC)c1nc2c3c(nc4c(c3c1C#N)CC(=O)N4c1ccc(Cl)cc1)NC(C)=N2", "Potency": "inconclusive: 18.4 µM [falling, partial curve]"}, {"compound": "O=C(CCCOc1ccccc1)N1CCN(C(=O)c2ccco2)CC1", "Potency": "inconclusive: 29.1 µM [activator, single point]"}, {"compound": "COc1ccc(-c2cc3nc4n(c(=O)c3s2)CCCCC4)cc1", "activity change, negative = cytotoxicity": "inactive: -5.53%"}, {"compound": "Cc1ccc(N2C(=O)CSC23C(=O)N(CC(=O)NCCc2ccccc2)c2ccccc23)cc1C", "note": "(centres undefined)", "activity change, negative = cytotoxicity": "inactive: -19.6%"}, {"compound": "COc1ccc(N2CCN(C(=O)C3CCCN(S(=O)(=O)c4ccc5c(c4)CCCN5C(C)=O)C3)CC2)cc1", "note": "(centres undefined)", "activity change, negative = cytotoxicity": "inactive: 2.25%"}, {"compound": "Cc1cc(C)c2cc(C(=O)N3CCC(C(=O)c4ccc(F)cc4)CC3)[nH]c2c1", "Potency": "inconclusive: 29.1 µM [falling, partial curve, poor fit]"}, {"compound": "CC1CN(C(=O)CN2C(=O)NC3(CCCCCCC3)C2=O)CC(C)O1", "note": "(centres undefined)", "Potency": "inconclusive: 9.2 µM [activator, partial curve]"}, {"compound": "CCN(CC)CCNC(=O)c1cc2c(s1)-c1ccccc1SC2", "Potency": "inconclusive: 5.17 µM [falling, partial curve]"}, {"compound": "Cc1ccn(-c2cc(O)c(-n3ccc(C)n3)cc2O)n1", "activity change, negative = cytotoxicity": "inactive: 12.3%"}, {"compound": "CCC(c1nnc(SCC(=O)Nc2cc(S(C)(=O)=O)ccc2Cl)n1Cc1ccccc1)N(C)C", "note": "(centres undefined)", "Potency": "inconclusive: 3.66 µM [activator, partial curve, poor fit]"}, {"compound": "CCOc1ccc(NC(=O)CN2C(=O)C(c3ccccc3)=NC23CCC(C)CC3)cc1", "note": "(centres undefined)", "Potency": "inconclusive: 18.4 µM [falling, partial curve, poor fit]"}, {"compound": "CCCN1C(C(=O)c2ccccc2)=C(OC(=O)COc2ccccc2)c2ccccc2S1(=O)=O", "Potency": "inconclusive: 14.6 µM [falling, partial curve]"}, {"compound": "O=C(COC(=O)Cn1cnc2ccccc21)Nc1cccc(S(=O)(=O)N2CCOCC2)c1", "Potency": "inconclusive: 23.1 µM [falling, single point]"}, {"compound": "O=C1C=CC(=O)N1CCCCCCN1C(=O)C=CC1=O", "Potency": "inconclusive: 29.1 µM [falling, single point]"}, {"compound": "CCn1nc([N+](=O)[O-])c(C(C#N)c2nc3cc(C(F)(F)F)ccc3s2)c(Cl)c1=O", "note": "(centres undefined)", "Potency": "inconclusive: 20.6 µM [falling, single point]"}, {"compound": "Cc1ccc(-c2csc(NCCn3c(-c4ccncc4)nc4cc(C(F)(F)F)ccc43)n2)cc1", "activity change, negative = cytotoxicity": "inactive: -0.106%"}, {"compound": "CCn1c(=O)c2cc(C(=O)Nc3cc(F)ccc3F)sc2c2ccccc21", "activity change, negative = cytotoxicity": "inactive: -7.54%"}, {"compound": "COc1ccc(-c2n[nH]c(=S)n2C2CCCCC2)cc1", "activity change, negative = cytotoxicity": "inactive: 1.8%"}, {"compound": "Cc1ccc(-c2ccc(/C=N/N=C3/NC(=O)C(CC(=O)O)S3)o2)c([N+](=O)[O-])c1", "note": "(centres undefined)", "activity change, negative = cytotoxicity": "inactive: -17.1%"}, {"compound": "COc1cccc(C2C(C(=O)Nc3ccccc3OC)=C(C)Nc3nc4ccccc4n32)c1", "note": "(centres undefined)", "activity change, negative = cytotoxicity": "inactive: -5.01%"}, {"compound": "Cc1noc(-c2ccc(Cl)cc2)c1C(=O)O/N=C(\\N)c1ccc(C(C)(C)C)cc1", "Potency": "inconclusive: 29.1 µM [falling, single point]"}, {"compound": "O=C(NCC1OCCc2ccccc21)c1ccc(NC(=O)c2ccc(Cl)cc2)cc1", "note": "(centres undefined)", "Potency": "inconclusive: 29.1 µM [falling, single point]"}, {"compound": "Cc1ccc(S(=O)(=O)Nc2cccc(C(=O)NC3CCN(Cc4ccccc4)CC3)c2)cc1F", "Potency": "inconclusive: 18.4 µM [falling, partial curve, poor fit]"}, {"compound": "Cc1ccc(-c2csc(/C(C#N)=C/c3ccccc3Cl)n2)cc1", "Potency": "inconclusive: 9.2 µM [activator, partial curve, poor fit]"}, {"compound": "COc1ccc2[nH]c(=O)c(CN(CC3CCCO3)C(=S)Nc3ccc(C)cc3)cc2c1", "note": "(centres undefined)", "Potency": "inconclusive: 23.1 µM [falling, single point]"}, {"compound": "Cc1cc(C)c(S(=O)(=O)c2ccccc2)c(OC(=O)c2c(Cl)cc(Cl)cc2Cl)n1", "Potency": "inconclusive: 20.6 µM [falling, partial curve, poor fit]"}, {"compound": "O=C1/C(=C\\c2cccnc2)SC(=S)N1C1CCS(=O)(=O)C1", "note": "(centres undefined)", "Potency": "inconclusive: 16.4 µM [falling, partial curve]"}, {"compound": "Cc1ccc2c(c1)N(C(=O)CCC(=O)NCc1ccccc1)CC(C)O2", "note": "(centres undefined)", "activity change, negative = cytotoxicity": "inactive: 10.1%"}, {"compound": "Cc1c(C(=O)NCc2cccnc2)oc2ccc(S(=O)(=O)N3CCC4(CC3)OCCO4)cc12", "activity change, negative = cytotoxicity": "inactive: 15.1%"}, {"compound": "Cn1c(=O)c2c(SCC(=O)N3CCOCC3)nc(-c3ccccc3F)nc2n(C)c1=O", "activity change, negative = cytotoxicity": "inactive: 0.621%"}, {"compound": "CN1CCN(CCCNC(=O)c2cnn(-c3ccccc3)c2-n2cccc2)CC1", "activity change, negative = cytotoxicity": "inactive: 5.33%"}, {"compound": "S=C(N/N=C/c1ccccc1Cl)Nc1ccccc1", "Potency": "inconclusive: 23.1 µM [activator, partial curve, poor fit]"}, {"compound": "COc1ccc2[nH]c(=O)c(CN(CC3CCCO3)C(=O)Nc3ccccc3OC)cc2c1", "note": "(centres undefined)", "activity change, negative = cytotoxicity": "inactive: -17.8%"}, {"compound": "COc1ccc(NC(=O)c2noc3c2CCC3)cc1", "Potency": "inconclusive: 10.3 µM [falling, partial curve]"}, {"compound": "Clc1ccc(CCNC(c2nnc(-c3ccccc3)o2)c2ccccc2Cl)cc1", "note": "(centres undefined)", "activity change, negative = cytotoxicity": "inactive: 11.3%"}, {"compound": "N#C/C(=C/c1ccc(N2CCOCC2)o1)c1nc2ccccc2[nH]1", "Potency": "inconclusive: 25.9 µM [falling, partial curve, poor fit]"}, {"compound": "COc1ccc(S(=O)(=O)NCc2ccco2)cc1NC(=O)c1ccccc1", "activity change, negative = cytotoxicity": "inactive: -12.7%"}]}]}
